Laboratory results taken from PMC5309361.
No constants are given. Whether binding was seen depends on the method and setting. Binding seen in cells or lysates may run through a third protein. Some binding calls cover weakened binding; strength is not graded here.

Sequences of proteins named here, by UniProt entry; tags and fusion partners are left off. Residues count along the entry.
UniProt Q61056: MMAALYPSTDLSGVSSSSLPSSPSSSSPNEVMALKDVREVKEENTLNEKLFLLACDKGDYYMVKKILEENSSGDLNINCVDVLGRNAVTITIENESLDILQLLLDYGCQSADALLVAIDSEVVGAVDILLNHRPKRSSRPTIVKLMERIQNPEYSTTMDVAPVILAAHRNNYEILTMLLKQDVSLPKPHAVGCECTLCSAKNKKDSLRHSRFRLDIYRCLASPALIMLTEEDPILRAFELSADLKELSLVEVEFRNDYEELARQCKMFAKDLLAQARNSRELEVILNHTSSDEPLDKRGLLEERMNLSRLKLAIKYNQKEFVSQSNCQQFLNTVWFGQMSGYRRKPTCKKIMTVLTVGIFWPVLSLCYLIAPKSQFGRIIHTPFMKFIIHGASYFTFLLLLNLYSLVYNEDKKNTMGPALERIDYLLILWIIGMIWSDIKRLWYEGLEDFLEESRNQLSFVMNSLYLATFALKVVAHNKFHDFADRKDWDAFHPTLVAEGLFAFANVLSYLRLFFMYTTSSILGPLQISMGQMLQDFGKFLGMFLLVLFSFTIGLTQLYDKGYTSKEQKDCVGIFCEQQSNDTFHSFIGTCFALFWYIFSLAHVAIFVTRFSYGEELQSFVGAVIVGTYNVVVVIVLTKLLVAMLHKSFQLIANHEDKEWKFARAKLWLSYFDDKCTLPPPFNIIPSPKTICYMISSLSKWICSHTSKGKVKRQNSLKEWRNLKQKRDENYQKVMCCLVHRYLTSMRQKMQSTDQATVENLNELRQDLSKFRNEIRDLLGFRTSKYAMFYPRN
UniProt P70302, residues 23-685: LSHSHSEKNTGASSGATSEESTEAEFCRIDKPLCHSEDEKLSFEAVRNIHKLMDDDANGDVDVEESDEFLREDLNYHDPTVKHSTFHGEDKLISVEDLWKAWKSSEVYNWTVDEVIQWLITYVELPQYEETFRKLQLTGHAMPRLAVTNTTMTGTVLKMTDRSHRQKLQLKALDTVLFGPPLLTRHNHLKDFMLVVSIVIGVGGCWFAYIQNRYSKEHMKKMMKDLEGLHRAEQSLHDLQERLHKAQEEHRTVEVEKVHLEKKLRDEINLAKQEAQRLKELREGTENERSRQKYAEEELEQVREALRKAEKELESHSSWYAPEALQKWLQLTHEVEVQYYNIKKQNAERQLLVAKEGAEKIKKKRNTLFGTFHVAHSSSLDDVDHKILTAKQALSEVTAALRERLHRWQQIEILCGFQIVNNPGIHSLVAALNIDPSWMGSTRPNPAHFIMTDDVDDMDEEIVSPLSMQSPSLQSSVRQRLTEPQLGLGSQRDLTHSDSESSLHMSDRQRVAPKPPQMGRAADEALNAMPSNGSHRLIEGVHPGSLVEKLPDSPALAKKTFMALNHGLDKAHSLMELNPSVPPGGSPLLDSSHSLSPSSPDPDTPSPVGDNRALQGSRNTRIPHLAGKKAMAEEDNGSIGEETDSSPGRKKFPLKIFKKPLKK

What was measured:
[1] = molecular target: canonical transient receptor potential channel 1 (TRPC1), mouse (mouse (endogenous in mesenteric artery VSMCs)) (UniProt Q61056); assay: proximity ligation; Duolink in situ PLA on fixed, Triton-permeabilised WT mouse mesenteric artery VSMCs, unstimulated
[2] = molecular target: canonical transient receptor potential channel 1 (TRPC1), mouse (mouse (endogenous in mesenteric artery VSMCs)) (UniProt Q61056); assay: co-IP; primary cultured WT mouse mesenteric artery VSMC lysates, BAPTA-AM; precipitating antibody not given
[3] = molecular target: canonical transient receptor potential channel 1 (TRPC1), mouse (mouse (endogenous in mesenteric artery VSMCs)) (UniProt Q61056); assay: proximity ligation; Duolink in situ PLA on fixed, Triton-permeabilised WT mouse mesenteric artery VSMCs treated with BAPTA-AM for 10 min or noradrenaline for 5 min

- binding [2]: binds
- binding [3]: binds
Substance: stromal interaction molecule 1 (STIM1), mouse (from UniProt P70302 23-685)
- binding [1]: no binding (condition: unstimulated cells (no BAPTA-AM))
